Patent US20230346952A1, “CANNABINOID GLYCOSIDE PRODRUGS AND METHODS OF SYNTHESIS” (priority 2015, published 2023)

Experiment: Differential solvent extraction with ethyl acetate:cyclohexane ratios (Table P)
[1] = Ethyl Acetate : Cyclohexane Ratio 1:1
[2] = Ethyl Acetate : Cyclohexane Ratio 3:4
[3] = Ethyl Acetate : Cyclohexane Ratio 5.5:4.5

CCCCCc1cc(O[C@@H]2O[C@H](CO)[C@@H](O)[C@H](O)[C@H]2O)c2c(c1)OC(C)(C)[C@@H]1CCC(C)=C[C@@H]21 [VB302, Δ9THC-1-O-glucopyranoside]
Removed [1]: 99.81% | Removed [2]: 99.09% | Removed [3]: 99.81%

CCCCCc1cc(O[C@@H]2O[C@H](CO[C@@H]3O[C@H](CO)[C@@H](O)[C@H](O)[C@H]3O)[C@@H](O)[C@H](O)[C@H]2O)c2c(c1)OC(C)(C)[C@@H]1CCC(C)=C[C@@H]21 [VB310]
Removed [1]: 58.56% | Removed [2]: 31.86% | Removed [3]: 66.18%

CCCCCc1cc(O[C@@H]2O[C@H](CO[C@@H]3O[C@H](CO)[C@@H](O)[C@H](O)[C@H]3O)[C@@H](O[C@@H]3O[C@H](CO)[C@@H](O)[C@H](O)[C@H]3O)[C@H](O)[C@H]2O)c2c(c1)OC(C)(C)[C@@H]1CCC(C)=C[C@@H]21 [VB311]
Purity [1]: 87.54% | Recovered [1]: 106.06% | Purity [2]: 84.82% | Recovered [2]: 115.01% | Purity [3]: 86.01% | Recovered [3]: 98.05%
